Results are given in words; binding and its absence hold for the method and conditions named. In cells and extracts the contact can be indirect. Here binding means that the protein was enriched with, or labelled near, the bait; the list need not be complete.
Target: full-length ZNF746 fused to TurboID (human) (UniProt Q6NUN9)
Test: proximity labelling

Protein sequences, listed by entry. Tags and fused reporters are not part of them.
UniProt Q6NUN9: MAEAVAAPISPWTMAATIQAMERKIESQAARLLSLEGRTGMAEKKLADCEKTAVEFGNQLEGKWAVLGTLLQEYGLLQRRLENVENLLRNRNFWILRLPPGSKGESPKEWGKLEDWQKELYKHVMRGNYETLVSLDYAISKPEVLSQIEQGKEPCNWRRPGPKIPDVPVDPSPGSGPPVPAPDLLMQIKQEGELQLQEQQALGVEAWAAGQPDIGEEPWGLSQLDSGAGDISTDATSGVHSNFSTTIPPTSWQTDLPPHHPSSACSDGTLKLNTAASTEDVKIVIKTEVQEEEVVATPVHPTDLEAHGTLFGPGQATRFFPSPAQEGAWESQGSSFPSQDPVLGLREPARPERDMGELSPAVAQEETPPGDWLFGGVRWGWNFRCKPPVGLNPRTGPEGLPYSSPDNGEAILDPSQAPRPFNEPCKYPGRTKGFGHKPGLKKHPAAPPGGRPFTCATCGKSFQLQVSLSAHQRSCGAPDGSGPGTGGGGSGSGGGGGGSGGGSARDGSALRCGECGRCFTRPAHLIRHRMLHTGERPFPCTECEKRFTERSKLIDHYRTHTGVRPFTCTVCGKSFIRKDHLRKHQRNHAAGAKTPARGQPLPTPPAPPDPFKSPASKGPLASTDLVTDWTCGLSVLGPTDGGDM
UniProt Q9UDV7: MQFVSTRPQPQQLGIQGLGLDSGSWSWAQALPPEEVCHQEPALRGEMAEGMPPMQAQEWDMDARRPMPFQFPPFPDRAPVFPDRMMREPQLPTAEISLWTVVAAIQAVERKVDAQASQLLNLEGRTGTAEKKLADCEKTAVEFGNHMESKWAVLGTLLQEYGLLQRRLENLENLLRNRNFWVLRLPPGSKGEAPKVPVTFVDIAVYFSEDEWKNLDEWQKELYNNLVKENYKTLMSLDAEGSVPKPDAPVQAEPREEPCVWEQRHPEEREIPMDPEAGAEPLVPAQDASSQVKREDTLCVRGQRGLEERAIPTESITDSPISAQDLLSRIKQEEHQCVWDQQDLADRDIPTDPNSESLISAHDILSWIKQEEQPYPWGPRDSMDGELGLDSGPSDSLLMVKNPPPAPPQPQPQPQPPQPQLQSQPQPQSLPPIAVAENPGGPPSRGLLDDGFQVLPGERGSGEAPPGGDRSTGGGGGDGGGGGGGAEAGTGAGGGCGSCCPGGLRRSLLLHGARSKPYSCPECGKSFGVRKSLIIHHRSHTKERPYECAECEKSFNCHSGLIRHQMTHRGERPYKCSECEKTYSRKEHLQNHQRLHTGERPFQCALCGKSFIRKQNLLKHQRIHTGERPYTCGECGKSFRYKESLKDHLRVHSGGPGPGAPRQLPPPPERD
UniProt Q9ULD5: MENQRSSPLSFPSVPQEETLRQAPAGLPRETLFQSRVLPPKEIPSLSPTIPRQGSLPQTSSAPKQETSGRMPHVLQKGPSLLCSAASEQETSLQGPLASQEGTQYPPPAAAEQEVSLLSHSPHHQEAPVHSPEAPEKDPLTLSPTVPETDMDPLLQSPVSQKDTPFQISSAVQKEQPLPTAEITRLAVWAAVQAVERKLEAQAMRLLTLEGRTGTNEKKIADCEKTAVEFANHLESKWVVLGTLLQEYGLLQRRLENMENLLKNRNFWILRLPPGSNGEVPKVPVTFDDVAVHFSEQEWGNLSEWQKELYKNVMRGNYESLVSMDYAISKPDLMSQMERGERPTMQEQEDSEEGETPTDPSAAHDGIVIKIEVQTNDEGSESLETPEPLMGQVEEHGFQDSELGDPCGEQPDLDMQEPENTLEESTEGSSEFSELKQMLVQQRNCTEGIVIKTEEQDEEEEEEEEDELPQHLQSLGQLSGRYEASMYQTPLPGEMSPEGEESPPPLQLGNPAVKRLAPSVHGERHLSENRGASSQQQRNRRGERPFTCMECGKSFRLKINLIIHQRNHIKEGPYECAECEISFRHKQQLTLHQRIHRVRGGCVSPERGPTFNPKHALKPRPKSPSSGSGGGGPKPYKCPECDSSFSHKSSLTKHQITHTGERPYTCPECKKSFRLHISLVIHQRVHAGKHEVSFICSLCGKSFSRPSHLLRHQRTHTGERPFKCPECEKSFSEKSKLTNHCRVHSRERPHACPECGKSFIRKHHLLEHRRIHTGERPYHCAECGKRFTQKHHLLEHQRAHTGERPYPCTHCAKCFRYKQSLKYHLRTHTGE

| binding | Substance |
| --- | --- |
| binds | ZNF282 (from UniProt Q9UDV7 1-671) |
| binds | ZNF777 (from UniProt Q9ULD5 1-831) |
